These results are taken from patent publication US20220332795A1.

Amino acid sequences for entries named in this document (tags omitted). A change or cut given only in a name is not applied to a line headed by its entry. Chains listed by the source or under a name are the forms on record and can include a tag or linker.
human CD71 (transferrin receptor 1) extracellular domain, recombinant, biotinylated (P02786, form named): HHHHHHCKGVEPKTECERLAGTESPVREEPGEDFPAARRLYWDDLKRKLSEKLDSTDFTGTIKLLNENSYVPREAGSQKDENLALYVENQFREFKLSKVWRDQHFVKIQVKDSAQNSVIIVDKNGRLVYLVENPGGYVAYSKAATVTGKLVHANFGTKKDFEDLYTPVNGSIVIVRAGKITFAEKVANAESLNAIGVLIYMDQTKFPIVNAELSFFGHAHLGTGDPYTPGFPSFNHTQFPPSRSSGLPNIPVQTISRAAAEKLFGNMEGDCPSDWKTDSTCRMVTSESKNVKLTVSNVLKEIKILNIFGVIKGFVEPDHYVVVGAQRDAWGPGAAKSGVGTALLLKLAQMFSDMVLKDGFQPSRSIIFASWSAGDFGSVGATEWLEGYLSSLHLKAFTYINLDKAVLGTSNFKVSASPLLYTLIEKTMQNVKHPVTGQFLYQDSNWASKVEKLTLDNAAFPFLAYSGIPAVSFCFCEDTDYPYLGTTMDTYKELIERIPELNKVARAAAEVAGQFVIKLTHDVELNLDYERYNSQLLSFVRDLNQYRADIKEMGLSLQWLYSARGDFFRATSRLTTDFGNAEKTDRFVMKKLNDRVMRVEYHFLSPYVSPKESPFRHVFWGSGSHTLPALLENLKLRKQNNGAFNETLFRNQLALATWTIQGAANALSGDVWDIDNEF

The assay has as its target human CD71 (transferrin receptor 1) extracellular domain, recombinant, biotinylated (human) (UniProt P02786). The experiment in a line: hit of apical domain panning; heading of the sequence table.

No constants are given. Whether binding was seen depends on the method and setting. Some entries that bind do so weakly or less than the wild type.

B1: FN3 domain of SEQ ID NO: 89 (designed binder)
chain: MLPAPENLVVSRVTEDSARLSWTAPDAAFDSFWIEYYEGVIQGEAIVLTVPGSERSYDLTGLKPGTEYFVAIWGVKGGKWSVPLSAIFTT
On to B1, for which the binding result is reported as “binds”.

B2: FN3 domain of SEQ ID NO: 87 (designed binder)
chain: MLPAPKNLVVSRVTEDSARLSWTAPDAAFDSFAIEYTEFLYSGEAIVLTVPGSERSYDLTGLKPGTEYGVPINGVKGGFVSPPLSAIVTT
Regarding B2, the binding entry is given as “binds”.

B3: FN3 domain of SEQ ID NO: 72 (designed binder)
chain: MLPAPKNLVVSRVTEDSARLSWTAPDAAFDSFTIGYREWYWYGEAIVLTVPGSERSYDLTGLKPGTEYNVPISGVKGGLDSFPLSAIFTT
As to B3, the binding entry is “binds”.

B4: FN3 domain of SEQ ID NO: 78 (designed binder)
chain: MLPAPKNLVVSRVTEDSARLSWTAPDAAFDSFGIGYYEHKRFGEAIQLSVPGSERSYDLTGLKPGTEYEVDIEGVKGGVLSWPLFAEFTT
For B4, the binding result is “binds”.

B5: FN3 domain of SEQ ID NO: 97 (designed binder)
chain: MLPAPKNLVVSRVTEDSARLSWTAPDAAFDSFHIWYEEETTIGEAIYLHVPGSERSYDLTGLKPGTEYEVHITGVKGGPYSRPLFANFTT
Take B5: the binding entry is reported as “binds”.

B6: FN3 domain of SEQ ID NO: 75 (designed binder)
chain: MLPAPKNLVVSRVTEDSARLSWTAPDAAFDSFTISYGEEALIGEAIYLRVPGSERSYDLTGLKPGTEYYVHIEGVKGGSWSQPLAAAFTT
Consider B6, for which the binding entry is listed as “binds”.

B7: FN3 domain of SEQ ID NO: 88 (designed binder)
chain: MLPAPKNLVVSRVTEDSARLSWTAPDAAFDSFPIKYREVLRCGEAIVLTVPGSERSYDLTGLKPGTEYTVPITGVKGGFGSSPLSAIFTT
Regarding B7, the binding result was “binds”.

B8: FN3 domain of SEQ ID NO: 71 (designed binder)
chain: MLPAPKNLVVSRVTEDSARLSWTAPDAAFDSFPISYLELSLYGEAIVLTVPGSERSYDLTGLKPGTEYPVGIAGVKGGVVSRPLSAIFTT
Consider B8, for which the binding result is “binds”.

B9: FN3 domain of SEQ ID NO: 96 (designed binder)
chain: MSLPAPKNLVVSRVTEDSARLSWTAPDAAFDSFPIAYLEVFYEGEAIVLTVPGSERSYDLTGLKPGTEYQVPIEGVKGGAMSLPLSAIFTT
Regarding B9, the binding result is given as “binds”.

B10: FN3 domain of SEQ ID NO: 68 (designed binder)
chain: MLPAPKNLVVSRVTEDSARLSWTAPDAAFDSFIIPYAEVRPDGEAIVLTVPGSERSYDLTGLKPGTEYSVLIHGVKGGHLSDPLSAISTT
Consider B10, for which the binding entry is on record as “binds”.

B11: FN3 domain of SEQ ID NO: 92 (designed binder)
chain: MLPAPKNLVVSRVTEDSARLSWTAPDAAFDSFFIPYAEPSPTGEAIVLTVPGSERSYDLTGLKPGTEYSVLIHGVKGGHLSDPLSAIFTT
As to B11, the binding result is recorded as “binds”.

B12: FN3 domain of SEQ ID NO: 99 (designed binder)
chain: MLPAPKNLVVSRVTEDSARLSWTAPDAAFDSFFIPYAEPSPTGEAIVLTVPGSERSYDLTGLKPGTEYSVLIHGVKGGHLSDPLSVIFTT
B12: the binding result is listed as “binds”.

B13: FN3 domain of SEQ ID NO: 83 (designed binder)
chain: MLPAPKNLVVSRVTEDSARLSWTAPDAAFDSFPIAYAEPRPDGEAIVLTVPGSERSYDLTGLKPGTEYSVLIHGVKGGLLSSPLSAISTT
B13: the binding entry is “binds”.

B14: FN3 domain of SEQ ID NO: 82 (designed binder)
chain: MLPAPKNLVVSRVTEDSARLSWTAPDAAFDSFLIPYAETSPSGEAIVLTVPGSERSYDLTGLKPGTEYSVLIHGVKGGDYSSPLSAIFTT
Regarding B14, the binding entry is recorded as “binds”.

B15: FN3 domain of SEQ ID NO: 77 (designed binder)
chain: MLPAPKNLVVSRVTEDSARLSWTAPDAAFDSFPIAYAEPRPDGEAIVLTVPGSERSYDLTGLKPGTEYSVLIHGVKGGLLSSPLSAIFTT
As to B15, the binding entry is “binds”.

B16: FN3 domain of SEQ ID NO: 74 (designed binder)
chain: MLPAPKNLVVSRVTEDSARLSWTAPDAAFDSFSITYLEWWNLGEAIVLTVPGSERSYDLTGLKPGTEYMVTIPGVKGGMSSYPLSAIFTT
On to B16, for which the binding result is on record as “binds”.

B17: FN3 domain of SEQ ID NO: 100 (designed binder)
chain: MLPAPKNLVVSRVTEDSARLSWTAPDAAFDSFYIWYEEVMYLGEAIVLTVPGSERSYDLTGLKPGTEYNVPIPGVKGGHSSPPLSAIFTT
As to B17, the binding result is given as “binds”.

B18: FN3 domain of SEQ ID NO: 93 (designed binder)
chain: MLPAPKNLVVSRVTEDSARLSWTAPDAAFDSFAIEYYEPVPAGEAIYLDVPGSERSYDLTGLKPGTEYDVTIYGVKGGYYSHPLFASFTT
As for B18, the binding entry was “binds”.

B19: FN3 domain of SEQ ID NO: 90 (designed binder)
chain: MLPAPKNLVVSRVTEDSARLSWQGVARAFDSFLITYREQIFAGEVIVLTVPGSERSYDLTGLKPGTEYPVWIQGVKGGSPSAEFTT
On to B19, for which the binding entry is given as “binds”.

B20: FN3 domain of SEQ ID NO: 84 (designed binder)
chain: MLPAPKNLVVSRVTEDSARLSWQGVARAFDSFSILYLELTPKGEAIVLTVPGSERSYDLTGLKPGTEYPVWIQGVKGGSPSAPLSAEFTT
With B20, the binding entry is given as “binds”.

B21: FN3 domain of SEQ ID NO: 67 (designed binder)
chain: MLPAPKNLVVSRVTEDSARLSWTAPDAAFDSFTILYAEQAQFGEAIVLTVPGSERSYDLTGLKPGTEYPITGVKGGTRSGPLSAISTT
Regarding B21, the binding result is “binds”.

B22: FN3 domain of SEQ ID NO: 76 (designed binder)
chain: MLPAPKNLVVSRVTEDSARLSWTAPDAAFDSFTIEYYENIGIGEAIVLTVPGSERSYDLTGLKPGTEYSVPIVGVKGGPYSHPLSAIFTT
For B22, the binding result is reported as “binds”.

B23: FN3 domain of SEQ ID NO: 79 (designed binder)
chain: MLPAPKNLVVSRVTEDSARLSWTAPDAAFDSFVIEYTERFWSGEAIVLTVPGSERSYDLTGLKPGTEYSVPIDGVKGGQCSTPLSAIFTT
With B23, the binding result is listed as “binds”.

B24: FN3 domain of SEQ ID NO: 85 (designed binder)
chain: MLPAPKNLVVSRVTEDSARLSWTAPDAAFDSFIIEYFEPIPIGEAIVLTVPGSERSYDLTGLKPGTEYAVNIYGVKGGYLSHPLSAIFTT
In the case of B24, the binding result is recorded as “binds”.

B25: FN3 domain of SEQ ID NO: 66 (designed binder)
chain: MLPAPKNLVVSRVTEDSARLSWTAPDAAFDSFTIDYDEPRSPGEAIVLTVPGSERSYDLTGLKPGTEYRVFIWGIKGGDTSFPLSAIFTT
For B25, the binding result was “binds”.

B26: FN3 domain of SEQ ID NO: 70 (designed binder)
chain: MLPAPKNLVVSRVTEDSARLSWQGVARAFDSFLITYREQIFAGEVIVLTVPGSERSYDLTGLKPGTEYPVWIQGVKGGDLSNPLSAIFTT
For the molecule B26, the binding result is reported as “binds”.

B27: FN3 domain of SEQ ID NO: 86 (designed binder)
chain: MLPAPKNLVVSEVTEDSARLSWQGVARAFDSFLITYREQIFAGEVIVLTVPGSECSYDLTGLKPGTEYPVWIQGVKGGSPSAPLSAEFTT
For the molecule B27, the binding entry is “binds”.

B28: FN3 domain of SEQ ID NO: 95 (designed binder)
chain: MLPAPKNLVVSEVTEDSARLSWQGVARAFDSFLITYREQIFAGEVIVLTVPGSERSYDLTGLKPGTEYPVWIQGVKGGSPSAPLSAEFTT
On to B28, for which the binding entry is listed as “binds”.

B29: FN3 domain of SEQ ID NO: 102 (designed binder)
chain: MLPAPKNLVVSRVTEDSARLSWQGVARAFDSFLITYREQIFAGEVIVLTVPGSERSYDLTGLKPGTEYPVWIQGVKGGSPSAPLSAEFTT
As for B29, the binding result was “binds”.

B30: FN3 domain of SEQ ID NO: 73 (designed binder)
chain: MLPAPKNLVVSEVTEDSARLSWQGVARAFDSFLITYREQIFAGEVIVLTVPGSERSYDLTGLKPGTEYPVWIQGVKGGSPSAPLSAESTT
B30: the binding result is “binds”.

B31: FN3 domain of SEQ ID NO: 81 (designed binder)
chain: MLPAPKNLVVSRVTEDSARLSWQGVARAFDSFLITYVELRHLGEAIVLTVPGSERSYDLTGLKPGTEYPVWIQGVKGGSPSAPLSAEFTT
As to B31, the binding entry is “binds”.

B32: FN3 domain of SEQ ID NO: 94 (designed binder)
chain: MLPAPKNLVVSEVTEDSARLSWQGVARAFDSFLITYREQIFAGEVIVLTVPGSERSYDLTGLKPGTEYPVWIQGVKGGSPSAPLSAIFTT
Consider B32, for which the binding result is “binds”.

B33: FN3 domain of SEQ ID NO: 80 (designed binder)
chain: MLPAPKNLVVSRVTEDSARLSWTAPDAAFDSFWIDYEEEGVIGEAIYLHVPGSERSYDLTGLKPGTEYVVKIHGVKGGHPSHPLVAVFTT
Consider B33, for which the binding entry is on record as “binds”.
